Test results: patent US20190127438A1
These are yes or no findings as the source states them, for the method shown. In cells and extracts the contact can be indirect. Some binding calls cover weakened binding; strength is not graded here.

Chains of the proteins cited; added tags and fusions are not shown. Lines headed by an entry give the natural chain unless they say otherwise; changes in a name come on top. Residues count along the entry.
UniProt P00747: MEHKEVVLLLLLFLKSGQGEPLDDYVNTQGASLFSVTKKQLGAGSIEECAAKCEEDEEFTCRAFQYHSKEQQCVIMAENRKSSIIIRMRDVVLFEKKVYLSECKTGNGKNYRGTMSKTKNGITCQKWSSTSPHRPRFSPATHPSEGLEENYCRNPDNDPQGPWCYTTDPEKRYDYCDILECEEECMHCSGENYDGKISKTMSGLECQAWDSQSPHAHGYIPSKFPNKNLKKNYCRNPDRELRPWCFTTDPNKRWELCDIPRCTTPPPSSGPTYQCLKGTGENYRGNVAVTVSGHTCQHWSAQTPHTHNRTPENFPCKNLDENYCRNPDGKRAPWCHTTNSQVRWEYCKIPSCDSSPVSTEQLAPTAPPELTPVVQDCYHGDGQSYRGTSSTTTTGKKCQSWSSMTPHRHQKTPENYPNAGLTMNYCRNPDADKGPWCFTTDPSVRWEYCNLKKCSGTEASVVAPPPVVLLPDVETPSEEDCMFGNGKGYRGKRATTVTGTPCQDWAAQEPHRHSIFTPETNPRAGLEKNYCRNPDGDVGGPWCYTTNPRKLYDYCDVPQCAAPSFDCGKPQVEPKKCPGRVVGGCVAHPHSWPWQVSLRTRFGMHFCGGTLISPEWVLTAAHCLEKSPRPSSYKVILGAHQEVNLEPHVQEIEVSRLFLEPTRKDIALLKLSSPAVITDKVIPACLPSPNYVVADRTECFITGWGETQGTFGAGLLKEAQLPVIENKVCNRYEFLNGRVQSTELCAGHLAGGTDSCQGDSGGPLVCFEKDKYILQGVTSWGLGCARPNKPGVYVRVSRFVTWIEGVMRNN
Plasminogen: residues 20-810 of P00747
plasmin (Sigma P1867): residues 97-810 of P00747
UniProt P12319: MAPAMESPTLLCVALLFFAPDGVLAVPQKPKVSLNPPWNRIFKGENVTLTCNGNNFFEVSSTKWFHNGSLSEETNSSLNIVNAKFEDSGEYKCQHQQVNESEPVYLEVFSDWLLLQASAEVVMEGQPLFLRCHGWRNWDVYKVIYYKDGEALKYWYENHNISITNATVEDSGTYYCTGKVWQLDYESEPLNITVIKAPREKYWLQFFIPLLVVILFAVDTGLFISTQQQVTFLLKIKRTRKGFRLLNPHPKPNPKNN

Tests used:
Plasminogen (human) = Plasminogen (human) (UniProt P00747); test: co-precipitation on FceRIa-coated beads from human serum, LC-MS/MS identification
plasmin (Sigma P1867) [1] = molecular target: plasmin (Sigma P1867) (UniProt P00747); test: co-precipitation of plasmin by FceRIa-coated magnetic beads, Western blot with anti-plasminogen antibody
plasmin (Sigma P1867) [2] = molecular target: plasmin (Sigma P1867) (UniProt P00747); test: co-precipitation on FceRIa-coated magnetic beads (50 µg FceRIa, 1 µg plasmin), Western blot with anti Plasminogen
plasmin (Sigma P1867) [3] = molecular target: plasmin (Sigma P1867) (UniProt P00747); test: co-precipitation on FceRIa-coated magnetic beads, Western blot

binding (Plasminogen (human)): binds | binding (plasmin (Sigma P1867) [1]): binds | binding (plasmin (Sigma P1867) [2]): binds | binding (plasmin (Sigma P1867) [3]): binds
Substance: recombinant wild type FceRIa (extracellular region of the alpha chain of the human high-affinity IgE receptor, spacer, 6His) (from UniProt P12319 20-205)
